# In PubChem BioAssay AID588590 (National Center for Advancing Translational Sciences (NCATS), 2011):
# Amino acid sequences for entries named in this document (tags omitted). A change or cut given only in a name is not applied to a line headed by its entry.
# UniProt Q9UNA4: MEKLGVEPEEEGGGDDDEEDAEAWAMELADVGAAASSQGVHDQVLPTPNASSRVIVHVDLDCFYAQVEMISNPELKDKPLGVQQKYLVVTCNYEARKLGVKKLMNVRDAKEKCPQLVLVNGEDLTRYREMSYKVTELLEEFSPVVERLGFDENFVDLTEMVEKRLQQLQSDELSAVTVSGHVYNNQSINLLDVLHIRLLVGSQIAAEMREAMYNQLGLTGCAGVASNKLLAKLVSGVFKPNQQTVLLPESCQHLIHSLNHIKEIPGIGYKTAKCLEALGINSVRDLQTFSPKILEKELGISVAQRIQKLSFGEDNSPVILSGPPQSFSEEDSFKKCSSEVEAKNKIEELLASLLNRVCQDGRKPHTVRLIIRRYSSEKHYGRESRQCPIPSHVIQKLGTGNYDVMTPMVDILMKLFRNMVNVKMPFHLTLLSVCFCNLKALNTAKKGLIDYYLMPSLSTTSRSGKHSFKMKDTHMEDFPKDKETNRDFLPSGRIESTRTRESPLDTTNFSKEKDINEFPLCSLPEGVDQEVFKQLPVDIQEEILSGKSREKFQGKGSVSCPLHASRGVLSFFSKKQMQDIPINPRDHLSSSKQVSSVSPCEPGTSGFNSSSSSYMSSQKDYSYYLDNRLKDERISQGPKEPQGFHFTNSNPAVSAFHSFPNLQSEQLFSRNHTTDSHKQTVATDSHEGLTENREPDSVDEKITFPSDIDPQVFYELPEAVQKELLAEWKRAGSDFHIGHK
# Screen size: about 390,000 compounds; about 4,000 (1%) were called active. This list was built around the results that the source calls inconclusive (neither active nor inactive); the mix of calls is not that of the screen. Calls come from the whole dose curve; as a rule, active = well fitted inhibition curve with a large enough effect; inconclusive = small, poorly fitted or top-dose-only effect, or another doubt; inactive = no such curve, though single readings can be large or run the other way. Potencies of inconclusive entries are doubtful fits and often do not repeat.
# Target: DNA polymerase iota (Homo sapiens) (UniProt Q9UNA4)
# Experiment: qHTS for Inhibitors of Polymerase Iota
# Details: Pol iota fluorescent replication assay, 10 min; series mostly up to 115 µM; activity, negative = inhibition: at the top concentration
# Procedure, shortened: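 Fluorescent replication assay read twice, at 0 min and 10 min after adding 50 nM (final) substrate. Enzyme (10 nM) and compounds were first incubated 15 min at room temperature; enzyme-free buffer wells were negative controls.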
# Potency is the fitted concentration of half-maximal effect.
Compound,Potency,"activity, negative = inhibition"
O=C(Cc1cn2ccsc2n1)OCc1nc2ccccc2s1,"inconclusive: 39.8 µM [inhibitor, partial curve]",
COc1ccc(-c2ccc3c(c2)S(=O)(=O)c2cccc(C(=O)NC4CC4)c2C3=O)cc1OC,"inconclusive: 3.16 µM [inhibitor, partial curve, poor fit]",
O=S1(=O)Nc2c(ccc3cccnc23)-c2ccccc21,"inconclusive: 25.1 µM [inhibitor, partial curve, poor fit]",
COc1cccc(-c2noc(C3CCCN(S(=O)(=O)c4cccc(Cl)c4C)C3)n2)c1 (stereo unspecified),"inconclusive: 50.1 µM [inhibitor, partial curve]",
CCCC(O)c1nc2ccccc2n1CCCCOc1ccc(OC)cc1 (stereo unspecified),,inactive: 12.1%
CCOc1ccc(Nc2ccc(N)c(S(=O)(=O)O)c2)cc1,active: 11.2 µM,
Cc1ccc(CNC(=O)COC(=O)c2ccc(S(=O)(=O)N(C)C)cc2)cc1,,inactive: -9.72%
Oc1ccc(CN2CCc3ccccc3C2)c2cccnc12,,inactive: 32.9%
CCn1c(/C=C/c2ccccc2[N+](=O)[O-])nc2ccccc2c1=O,"inconclusive: 44.7 µM [inhibitor, partial curve, poor fit]",
COc1ccc(-c2nnc(NC(=O)c3ccc(S(=O)(=O)N4COCC4(C)C)cc3)o2)cc1,"inconclusive: 35.5 µM [inhibitor, single point]",
Cc1c(C(=O)O)cccc1-c1ccc(/C=C2/NC(=O)N(c3ccccc3)C2=O)o1,"inconclusive: 56.2 µM [inhibitor, partial curve, poor fit]",
CN1CCO/C1=C(\C(Cl)=C(Cl)Cl)[N+](=O)[O-],,inactive: 39.6%
O=C(Cc1cc(=O)[nH][nH]1)N/N=C/C=C/c1ccccc1,"inconclusive: 7.94 µM [inhibitor, full curve, poor fit]",
C#CC1(NC(=O)N(C)C)CCCCC1,"inconclusive: 89.1 µM [inhibitor, partial curve, poor fit]",
COc1ccc(C(C(=O)NC2CCCC2)N(Cc2ccccc2)C(=O)c2snc(C(N)=O)c2N)cc1OC (stereo unspecified),"inconclusive: 89.1 µM [inhibitor, single point]",
Cc1ccc(NC(=O)CS(=O)CC(=O)Nc2ccc3c(c2)OCO3)cc1Cl (stereo unspecified),"inconclusive: 3.98 µM [inhibitor, full curve, poor fit]",
COc1ccccc1C1C2=C(N=c3s/c(=C/c4cccc(OCC(=O)O)c4)c(=O)n31)c1ccccc1CC2 (stereo unspecified),"inconclusive: 20 µM [inhibitor, full curve, poor fit]",
Cc1cccc2c1-c1sc(C(=O)NCCc3ccc(Cl)cc3)cc1CO2,"inconclusive: 89.1 µM [inhibitor, partial curve, poor fit]",
O=C(CSc1nnc(CNC(=O)c2c(F)cccc2F)o1)NCC1CCCO1 (stereo unspecified),,inactive: 4.19%
COc1ccc(-c2ccc3c(c2)S(=O)(=O)c2cccc(C(=O)NC[C@@H]4CCCO4)c2C3=O)cc1OC,"inconclusive: 22.4 µM [inhibitor, full curve]",
CCOC(=O)C(C(C)C)C(N)Cc1ccc(F)cc1 (stereo unspecified),"inconclusive: 10 µM [inhibitor, full curve, poor fit]",

# A run of entries from further up, for reference:
Compound,Potency,"activity, negative = inhibition"
CCOc1ccc(Nc2ccc(N)c(S(=O)(=O)O)c2)cc1,active: 11.2 µM,
Cc1ccc(CNC(=O)COC(=O)c2ccc(S(=O)(=O)N(C)C)cc2)cc1,,inactive: -9.72%

# Continued.

Compound,Potency,"activity, negative = inhibition"
O=S(=O)(/N=C(/Nc1cccc2ccccc12)c1ccccc1)c1ccc(F)cc1,"inconclusive: 31.6 µM [inhibitor, full curve, poor fit]",
C#CCOCCOCCOCCNc1nc(N2CCN(C(=O)CCCCCCCCCCNC(=O)Cn3cc(C[C@@H](C)O)nn3)CC2)nc(N2CCN(C(=O)CCCCCCCCCCNC(=O)[C@H](CCCCN)n3cc(CCCC(=O)O)nn3)CC2)n1,,inactive: -22.8%
COc1cc(OC)cc(C(=O)NNC(=O)CCNC(=O)c2ccc(Br)cc2)c1,,inactive: -8.99%
COc1cc(OC)c(/C=C/c2cc3ccccc3c[n+]2C)c(OC)c1,"inconclusive: 56.2 µM [inhibitor, partial curve, poor fit]",
CSc1ccc(/C=C(/NC(=O)c2ccccc2)C(=O)NCCN2CCOCC2)cc1,,inactive: 17.3%
COc1ccc(NC(=O)c2ccc3c(c2)c(C)c(C)n3Cc2ccc(F)cc2)cc1,"inconclusive: 89.1 µM [inhibitor, single point]",
Cc1cc(NC(=O)c2ccc(S(=O)(=O)N3CCc4ccccc43)cc2)no1,"inconclusive: 12.6 µM [inhibitor, partial curve]",
O=C(CCc1ccccc1)NCCc1csc(-c2cccc(F)c2)n1,,inactive: 25.7%
N#Cc1c(C(F)(F)F)cc(-c2ccccc2)nc1SCC(=O)Nc1sc2c(c1C#N)CCC2,"inconclusive: 31.6 µM [inhibitor, single point]",
O=C(CCN1CCCCC1)N=Nc1c(O)[nH]c2ccccc12,"inconclusive: 17.8 µM [inhibitor, partial curve]",
O=C(CCc1nc(-c2ccccc2)no1)NCc1ccco1,"inconclusive: 11.2 µM [inhibitor, full curve, poor fit]",
COc1ccccc1C(=O)NC(=S)Nc1cccnc1Cl,"inconclusive: 22.4 µM [inhibitor, full curve, poor fit]",
COc1ccc(C(=O)/C=C2/C(=O)Nc3ccccc32)cc1,"inconclusive: 17.8 µM [inhibitor, single point]",
Cc1occc1C(=O)/C(C#N)=C/c1ccc(O)c(Br)c1,,inactive: 41.2%
O=C(CN1CCN(Cc2ccccc2)CC1)NC(=O)NCc1ccco1,"inconclusive: 112 µM [inhibitor, single point]",
Cc1ccc(NC(=O)Cn2c(=O)n(CCC(=O)NCCc3ccccc3)c(=O)c3ccccc32)cc1,"inconclusive: 89.1 µM [inhibitor, single point]",
Cc1ccc(C)c(N2CCN(CCCc3ccccc3)CC2)c1,"inconclusive: 20 µM [inhibitor, partial curve, poor fit]",
COc1cccc(NC(=O)CSc2nnc(COc3ccc4c(c3)CCCC4)o2)c1,,inactive: 17%
CCc1ccc(OCC(=O)N(Cc2ccco2)Cc2ccco2)cc1,,inactive: 15.2%
COc1cccc(CN2C(=O)c3ccccc3Sc3ccc(C(=O)NCCc4ccc(Cl)cc4)cc32)c1,"inconclusive: 89.1 µM [inhibitor, single point]",
